# According to the supplement of paper PMC10849652:
# By UniProt entry, the sequences of proteins in these tests, tags left out. Where a name states a change or a piece, a line headed by the entry shows the natural chain unless it says otherwise.
# UniProt Q8TDW0: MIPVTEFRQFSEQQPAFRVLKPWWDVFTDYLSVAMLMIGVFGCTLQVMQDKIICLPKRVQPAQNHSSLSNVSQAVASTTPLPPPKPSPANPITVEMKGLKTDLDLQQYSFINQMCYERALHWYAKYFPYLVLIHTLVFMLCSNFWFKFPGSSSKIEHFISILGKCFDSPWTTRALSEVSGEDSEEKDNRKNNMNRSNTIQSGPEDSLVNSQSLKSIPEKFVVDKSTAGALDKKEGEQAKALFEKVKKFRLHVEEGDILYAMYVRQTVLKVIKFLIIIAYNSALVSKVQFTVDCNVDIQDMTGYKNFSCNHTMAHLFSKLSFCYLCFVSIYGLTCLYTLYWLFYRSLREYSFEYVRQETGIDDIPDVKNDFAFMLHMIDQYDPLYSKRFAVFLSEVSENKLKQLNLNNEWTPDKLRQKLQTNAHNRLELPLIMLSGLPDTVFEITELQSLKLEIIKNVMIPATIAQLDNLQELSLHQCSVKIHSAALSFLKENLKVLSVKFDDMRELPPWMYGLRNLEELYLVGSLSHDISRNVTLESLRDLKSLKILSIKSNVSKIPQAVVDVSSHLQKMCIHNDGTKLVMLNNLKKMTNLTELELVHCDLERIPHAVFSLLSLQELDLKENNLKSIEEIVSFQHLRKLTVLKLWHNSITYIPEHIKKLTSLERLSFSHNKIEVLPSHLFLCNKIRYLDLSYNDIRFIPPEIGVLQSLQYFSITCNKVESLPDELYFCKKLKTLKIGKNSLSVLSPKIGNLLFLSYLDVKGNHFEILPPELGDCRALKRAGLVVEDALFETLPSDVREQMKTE
# UniProt P02545: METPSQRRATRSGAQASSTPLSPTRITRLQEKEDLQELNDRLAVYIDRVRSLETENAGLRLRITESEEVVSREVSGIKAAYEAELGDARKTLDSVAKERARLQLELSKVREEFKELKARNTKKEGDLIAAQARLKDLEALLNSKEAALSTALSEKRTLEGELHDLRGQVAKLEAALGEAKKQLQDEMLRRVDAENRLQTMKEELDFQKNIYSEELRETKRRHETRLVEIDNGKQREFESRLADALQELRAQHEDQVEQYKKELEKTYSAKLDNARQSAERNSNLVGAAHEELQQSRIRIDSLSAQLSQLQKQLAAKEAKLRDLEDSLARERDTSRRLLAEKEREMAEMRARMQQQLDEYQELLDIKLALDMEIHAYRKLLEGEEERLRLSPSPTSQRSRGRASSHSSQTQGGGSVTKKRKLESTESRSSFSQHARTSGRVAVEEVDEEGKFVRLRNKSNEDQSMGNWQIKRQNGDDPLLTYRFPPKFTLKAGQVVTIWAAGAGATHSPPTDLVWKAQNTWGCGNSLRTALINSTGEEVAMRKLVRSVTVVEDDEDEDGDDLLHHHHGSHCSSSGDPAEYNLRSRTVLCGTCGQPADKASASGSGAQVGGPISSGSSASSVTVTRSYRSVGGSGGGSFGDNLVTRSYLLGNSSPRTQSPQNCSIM
# UniProt P09960: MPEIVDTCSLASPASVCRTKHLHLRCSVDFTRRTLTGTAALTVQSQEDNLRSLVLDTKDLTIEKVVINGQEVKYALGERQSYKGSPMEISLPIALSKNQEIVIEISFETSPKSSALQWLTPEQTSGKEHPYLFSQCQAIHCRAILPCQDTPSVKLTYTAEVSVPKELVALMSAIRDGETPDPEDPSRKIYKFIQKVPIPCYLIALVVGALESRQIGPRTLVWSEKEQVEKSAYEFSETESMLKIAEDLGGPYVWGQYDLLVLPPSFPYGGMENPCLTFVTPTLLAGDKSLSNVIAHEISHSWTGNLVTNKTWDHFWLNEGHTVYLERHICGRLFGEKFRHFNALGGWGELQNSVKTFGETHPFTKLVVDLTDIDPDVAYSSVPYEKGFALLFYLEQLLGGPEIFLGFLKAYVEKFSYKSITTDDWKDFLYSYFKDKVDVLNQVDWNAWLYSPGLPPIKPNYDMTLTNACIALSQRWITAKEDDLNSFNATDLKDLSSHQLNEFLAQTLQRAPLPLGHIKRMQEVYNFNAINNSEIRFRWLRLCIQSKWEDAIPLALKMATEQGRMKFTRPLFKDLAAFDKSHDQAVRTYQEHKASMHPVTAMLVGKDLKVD
# UniProt P07195, whole entry, looked up: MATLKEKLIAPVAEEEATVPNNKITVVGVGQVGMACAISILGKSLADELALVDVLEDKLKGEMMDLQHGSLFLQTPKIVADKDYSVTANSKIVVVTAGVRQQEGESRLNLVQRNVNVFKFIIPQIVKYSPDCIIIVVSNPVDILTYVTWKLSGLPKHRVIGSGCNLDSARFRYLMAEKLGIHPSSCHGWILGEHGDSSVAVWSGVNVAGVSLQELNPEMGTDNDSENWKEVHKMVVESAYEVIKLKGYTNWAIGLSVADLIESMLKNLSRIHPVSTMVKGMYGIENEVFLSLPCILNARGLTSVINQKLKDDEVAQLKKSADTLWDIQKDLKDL
# UniProt P48449: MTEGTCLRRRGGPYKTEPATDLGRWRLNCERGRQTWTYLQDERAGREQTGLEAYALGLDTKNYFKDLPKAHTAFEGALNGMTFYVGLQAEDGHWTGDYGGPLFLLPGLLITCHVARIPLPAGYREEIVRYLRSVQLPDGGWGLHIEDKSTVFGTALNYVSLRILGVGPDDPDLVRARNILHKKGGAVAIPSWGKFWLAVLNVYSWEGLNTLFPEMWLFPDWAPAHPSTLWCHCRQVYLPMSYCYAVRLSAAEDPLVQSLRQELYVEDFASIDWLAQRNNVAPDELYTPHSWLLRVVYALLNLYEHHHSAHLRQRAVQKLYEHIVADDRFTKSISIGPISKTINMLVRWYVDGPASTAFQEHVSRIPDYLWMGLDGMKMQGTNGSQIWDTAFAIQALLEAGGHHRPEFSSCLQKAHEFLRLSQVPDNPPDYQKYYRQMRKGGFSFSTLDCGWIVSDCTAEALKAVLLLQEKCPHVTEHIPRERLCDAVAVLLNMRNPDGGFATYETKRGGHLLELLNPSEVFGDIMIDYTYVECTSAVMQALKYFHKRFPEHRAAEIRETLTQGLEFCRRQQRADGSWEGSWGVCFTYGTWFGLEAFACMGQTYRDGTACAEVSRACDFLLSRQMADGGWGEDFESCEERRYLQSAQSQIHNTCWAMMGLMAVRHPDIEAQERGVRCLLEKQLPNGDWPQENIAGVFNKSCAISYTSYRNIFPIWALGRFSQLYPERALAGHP
# UniProt O95777: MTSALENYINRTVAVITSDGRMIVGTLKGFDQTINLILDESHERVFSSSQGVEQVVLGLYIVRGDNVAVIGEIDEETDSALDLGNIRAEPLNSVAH
# UniProt Q9Y608: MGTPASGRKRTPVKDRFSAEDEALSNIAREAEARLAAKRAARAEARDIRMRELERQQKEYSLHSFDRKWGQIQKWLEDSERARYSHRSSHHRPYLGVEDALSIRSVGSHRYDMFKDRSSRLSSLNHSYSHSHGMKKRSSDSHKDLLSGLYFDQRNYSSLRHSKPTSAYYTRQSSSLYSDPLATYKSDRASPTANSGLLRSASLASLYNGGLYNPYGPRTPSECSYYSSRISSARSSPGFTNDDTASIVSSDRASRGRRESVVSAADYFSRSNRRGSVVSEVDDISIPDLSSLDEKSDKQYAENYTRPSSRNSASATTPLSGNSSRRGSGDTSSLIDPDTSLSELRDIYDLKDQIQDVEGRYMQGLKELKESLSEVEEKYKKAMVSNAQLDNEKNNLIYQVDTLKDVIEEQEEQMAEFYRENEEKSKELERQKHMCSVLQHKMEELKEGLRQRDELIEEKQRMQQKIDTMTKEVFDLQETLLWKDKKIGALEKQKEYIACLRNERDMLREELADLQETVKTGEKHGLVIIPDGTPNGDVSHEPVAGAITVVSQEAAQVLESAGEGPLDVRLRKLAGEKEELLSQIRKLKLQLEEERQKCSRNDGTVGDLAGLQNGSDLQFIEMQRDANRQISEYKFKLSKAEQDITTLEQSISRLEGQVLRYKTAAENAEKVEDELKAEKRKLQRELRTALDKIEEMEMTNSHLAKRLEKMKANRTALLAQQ
# UniProt Q9H0V9: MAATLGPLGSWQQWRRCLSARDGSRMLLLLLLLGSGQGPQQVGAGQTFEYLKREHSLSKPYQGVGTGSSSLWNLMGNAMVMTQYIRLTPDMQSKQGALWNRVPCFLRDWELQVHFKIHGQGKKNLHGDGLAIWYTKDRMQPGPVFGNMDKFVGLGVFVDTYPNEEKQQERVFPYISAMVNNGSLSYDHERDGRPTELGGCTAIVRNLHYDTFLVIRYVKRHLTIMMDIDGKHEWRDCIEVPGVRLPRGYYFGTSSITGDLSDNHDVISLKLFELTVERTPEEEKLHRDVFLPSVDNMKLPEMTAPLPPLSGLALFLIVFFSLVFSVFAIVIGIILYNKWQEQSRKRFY
# This is one part of the list.
# Experiments:
# Test in all cases: log2 fold change, soluble protein after heating vs DMSO (PISA); higher = thermal stabilisation; K562 lysate, 10 uM; active = over 0.2 and 3.5 SD of the protein, either way, in both replicates (recomputed)
# [1] = compound: C=CC(=O)N1CCC[C@@H](n2nc(-c3ccc(Oc4ccccc4)cc3)c3c(N)ncnc32)C1 [ibrutinib]
# Procedure, shortened: (§1)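 To prepare the extract, K562 pellets were dounce-homogenised in PBS pH 7.4 with 1 mM MgCl2, giving crude material at 1 mg/mL protein. This was treated with 10 μM compound for 30 min, then heated in aliquots for 3 min over 48°C-58°C before pooling and addition of NP-40 to 0.5% at 4°C. Centrifugation at 21,000xg for 90 min left soluble protein in the supernatant, which TMTpro 16plex LC-MS/MS quantified with equalised channel sums. Results are log-two fold changes in thermal stability compared with solvent controls, from duplicates.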
# [2] = compound: CC(=O)c1cnc2ccc(-c3cc(Cl)c(O)c(Cl)c3)nc2c1N[C@H]1CC[C@H](CN(C)C)CC1
# Procedure, shortened: as §1
# [3] = compound: CC(C)(C)Cn1c(N)nc2ccc(-c3[nH]c(C(C)(C)C)nc3-c3ccc(F)cc3)nc21 [ralimetinib]
# Procedure, shortened: as §1
# [4] = compound: CC(C)(O)CC(=O)NCCn1ccc2ncnc(Nc3ccc(Oc4cccc(C(F)(F)F)c4)c(Cl)c3)c21
# Procedure, shortened: as §1
# [5] = compound: CC(C)C1=C2N=C(C=C(N2N=C1)NCC3=CC=CC=C3)NCCCCCCN
# Procedure, shortened: as §1
# [6] = compound: CC1=C(C(CC(=O)N1)C2=CC=C(C=C2)C(F)(F)F)C(=O)NC3=C(C=C4C(=C3)C=NN4)F
# Procedure, shortened: as §1
# [7] = compound: CC1=C(C2=C(C=C1)C(=O)C3=CC=CC=C3N2CCCN)C
# Procedure, shortened: as §1
# [8] = compound: CC1=C(C=C(C=C1)NC(=O)C2=CC(=CC=C2)C(C)(C)C#N)NC3=CC4=C(C=C3)N=CN(C4=O)C
# Procedure, shortened: as §1
# [9] = compound: CC1=C(C=C(C=C1)NC(=O)C2=CC(=CC=C2)N(C)C)NC(=O)C3=CC=C(C=C3)O
# Procedure, shortened: as §1
# [10] = compound: CC1=CC=C(C=C1)SC2=C3C=C(SC3=CN=C2)C(=O)N
# Procedure, shortened: as §1
# [11] = compound: CCCS(=O)(=O)Nc1ccc(F)c(C(=O)c2c[nH]c3ncc(-c4ccc(Cl)cc4)cc23)c1F [vemurafenib]
# Procedure, shortened: as §1
# [12] = compound: CCCS(=O)(=O)Nc1ccc(F)c(C(=O)c2c[nH]c3ncc(Cl)cc23)c1F
# Procedure, shortened: as §1
# [13] = compound: CCN(CCCOc1ccc2c(Nc3cc(CC(=O)Nc4cccc(F)c4)[nH]n3)ncnc2c1)CCOP(=O)(O)O [barasertib]
# Procedure, shortened: as §1
# [14] = compound: CC[C@@H]1C(=O)N(C)c2cnc(Nc3ccc(C(=O)NC4CCN(C)CC4)cc3OC)nc2N1C1CCCC1
# Procedure, shortened: as §1
# [15] = compound: CC[C@@H]1C(=O)N(C)c2cnc(Nc3ccc(C(=O)N[C@H]4CC[C@H](N5CCN(CC6CC6)CC5)CC4)cc3OC)nc2N1C(C)C [volasertib]
# Procedure, shortened: as §1
# [16] = compound: CCn1c(C(=O)N(C2CC2)C2CC2)cc2c3c(ncn3C)c(Nc3cc(C)n(C)n3)nc21
# Procedure, shortened: as §1
# [17] = compound: CCn1cc(-c2ccnc3[nH]c(-c4cccc(CN(C)C)c4)cc23)c(-c2ccc(NC(=O)N(C)C)cc2)n1
# Procedure, shortened: as §1
# [18] = compound: CN1CCC(CNc2ccc3ncc(-c4cccc(OC(F)(F)F)c4)n3n2)CC1
# Procedure, shortened: as §1
# [19] = compound: CN1CCN(CCOc2cc(OC3CCOCC3)c3c(Nc4c(Cl)ccc5c4OCO5)ncnc3c2)CC1 [saracatinib]
# Procedure, shortened: as §1
# [20] = compound: CN1CCN(c2nc(C3=C(c4c[nH]c5ccccc45)C(=O)NC3=O)c3ccccc3n2)CC1 [sotrastaurin]
# Procedure, shortened: as §1
Target,log2 fold change [1],log2 fold change [2],log2 fold change [3],log2 fold change [4],log2 fold change [5],log2 fold change [6],log2 fold change [7],log2 fold change [8],log2 fold change [9],log2 fold change [10],log2 fold change [11],log2 fold change [12],log2 fold change [13],log2 fold change [14],log2 fold change [15],log2 fold change [16],log2 fold change [17],log2 fold change [18],log2 fold change [19],log2 fold change [20]
LRRC8C (UniProt Q8TDW0),inactive: 0.126,inactive: -0.027,inactive: 0.108,inactive: -0.052,inactive: 0.082,inactive: -0.119,inactive: -0.149,inactive: 0.022,inactive: 0.018,inactive: 0.058,inactive: 0.146,inactive: -0.073,inactive: -0.013,inactive: -0.133,inactive: -0.088,inactive: -0.06,inactive: 0.012,inactive: 0.055,inactive: 0.103,inactive: 0.012
LMNA (UniProt P02545),inactive: 0.016,inactive: -0.015,inactive: 0.04,inactive: 0.001,inactive: -0.029,inactive: -0.037,inactive: 0.044,inactive: -0.037,inactive: -0.003,inactive: -0.014,inactive: -0.075,inactive: 0.001,inactive: 0.186,inactive: -0.014,inactive: 0.013,inactive: 0.022,inactive: -0.018,inactive: 0.033,inactive: 0.018,inactive: -0.003
LTA4H (UniProt P09960),inactive: 0.025,inactive: 0.017,inactive: 0.013,inactive: -0.004,inactive: -0.009,inactive: -0.025,inactive: 0.012,inactive: -0.016,inactive: -0.01,inactive: -0.017,inactive: -0.022,inactive: -0.015,inactive: -0.039,inactive: 0.005,inactive: 0.034,inactive: 0.015,inactive: -0.028,inactive: 0.05,inactive: -0.003,inactive: 0.017
LDHB (UniProt P07195),inactive: 0.006,inactive: 0.002,inactive: 0,inactive: -0.02,inactive: -0.002,inactive: -0.014,inactive: -0.006,inactive: 0.012,inactive: -0.02,inactive: -0.025,inactive: 0.007,inactive: -0.009,inactive: -0.033,inactive: 0.024,inactive: 0.038,inactive: -0.036,inactive: -0.007,inactive: 0.047,inactive: -0.006,inactive: 0.002
LSS (UniProt P48449),inactive: -0.009,inactive: -0.018,inactive: 0.14,inactive: 0.072,inactive: 0.026,inactive: 0.013,inactive: -0.131,inactive: -0.003,inactive: -0.04,inactive: -0.065,inactive: 0.016,inactive: -0.009,inactive: 0.044,inactive: -0.078,active: 0.434,inactive: -0.009,inactive: -0.09,inactive: 0.123,inactive: -0.043,inactive: 0
LSM8 (UniProt O95777),inactive: 0.051,inactive: 0.012,inactive: 0.055,inactive: -0.021,inactive: -0.02,inactive: -0.01,inactive: -0.011,inactive: 0.03,inactive: -0.007,inactive: 0.005,inactive: -0.054,inactive: 0.018,inactive: 0.355,inactive: -0.019,inactive: 0.027,inactive: 0,inactive: -0.058,inactive: 0.052,inactive: -0.005,inactive: -0.017
LRRFIP2 (UniProt Q9Y608),inactive: 0,inactive: 0.009,inactive: 0.012,inactive: -0.052,inactive: -0.051,inactive: 0.018,inactive: -0.017,inactive: 0.017,inactive: 0.023,inactive: -0.017,inactive: 0.018,inactive: 0.005,inactive: -0.013,inactive: 0.041,inactive: 0.004,inactive: 0.009,inactive: 0.063,inactive: 0.04,inactive: 0.03,inactive: -0.018
LMAN2L isoform 2 (UniProt Q9H0V9),inactive: -0.006,inactive: 0.023,inactive: -0.001,inactive: -0.021,inactive: -0.021,inactive: -0.028,inactive: 0.021,inactive: 0.042,inactive: -0.003,inactive: 0.055,inactive: -0.017,inactive: 0.007,inactive: 0.037,inactive: 0.034,inactive: -0.004,inactive: -0.042,inactive: -0.072,inactive: -0.033,inactive: 0.003,inactive: 0.009

# Part of the list above, limited to log2 fold change [12]:
Target	log2 fold change [12]
LDHB (UniProt P07195)	inactive: -0.009
LSS (UniProt P48449)	inactive: -0.009
